Experimental data taken from article PMC12830165 (The Journal of Biological Chemistry, 2025).
Construct, isoform or probe ends are uncertain for at least one entry. A weaker result is weaker than the reference pair of the same experiment. At least one verdict rests on a figure or table, not on a statement of the authors.

Tested on: ORC1-5 (WT, ORC1ΔN) N78S (human)
Test: fluorescence anisotropy
Details: no ATP, 10 mM Mg acetate, 25 mM HEPES-KOH pH 7.6, 300 mM K glutamate, 10% glycerol, 1 mM DTT, 0.01% NP-40, 0 or 1 mM ATP, 1 nM DNA, 30 min at 22 °C, Hill fit (Kd,app), recombinant protein

“TTTTGAAAAGCAAGCATAAAAGATCTAAACATAAAATCTG (double strand) [40 bp fluorescein dsDNA]”: binds more weakly.
